This is an account of results in patent publication US4782043A (Merck & Co., Inc., priority 1985, dated 1988).

The data set can be described thus: general procedure: Boc solid-phase peptide synthesis; BOC-Phe esterified to 2% cross-linked polystyrene-divinylbenzene; dicyclohexylcarbodiimide with 1-hydroxybenzotriazole hydrate. Conditions: cyclisation step, TLC.

Regarding “N-isobutyryl-L-Histidyl-L-Prolyl-L-Phenylalanyl-L-Homolysyl-(3S,4S)-Statyl-L-Leucyl-L-Phenylalanyl”, the “final HPLC purity” value was 88.9%.
For the substance “Isobutyryl-L-Histidyl-L-Prolyl-L-Phenylalanyl-L-Lysyl-(3S,4S)-Statyl-L-Leucyl-L-Phenylalanine”, the “final HPLC purity” value (side-chain lactam ring, sequence written open) is on record as 99.8%.
